Laboratory results: patent US20220144970A1
Results are given in words; binding and its absence hold for the method and conditions named. Some results given as binding are weak or reduced against the parent protein; the word gives no strength.

Sequences of proteins named here, by UniProt entry; tags and fusion partners are left off. Residues count along the entry.
UniProt P01591, residues 23-159: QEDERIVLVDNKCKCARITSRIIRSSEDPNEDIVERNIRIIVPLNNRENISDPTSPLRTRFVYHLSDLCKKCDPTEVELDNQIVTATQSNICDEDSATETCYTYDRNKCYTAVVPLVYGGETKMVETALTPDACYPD

Target: J chain of intact dIgA (human) (UniProt P01591)
Assay: ELISA on intact dIgA

B1: CA1L 33e1 A1a3 (antibody, V domains shown)
VH: DVKLVESGEGLVKPGGSLKLSCVASGFTFSNYGMSWVRQTPEKRLEWVAFINRGGDRIYYADTVKGRFTISRDNARNTLYLQMSSLKSEDTAIYYCRGLYYYGSDYYFDYWGQGTTLTVSS
VL: DIQMTQSPASLSTSVGETVTITCRASGNIHNYLAWSQQKQGNSPQLLVYNAKTLAEGVPSRFSGSGSGTQYSLKINSLQPEDFGSYYCHHYYSTPYTFGSGTKLEIK
binding: binds
